This passage reports binding results from doi:10.1101/2022.09.09.507377.

Sequences of proteins named here, by UniProt entry; tags and fusion partners are left off. Residues count along the entry.
UniProt O14974, residues 654-1030: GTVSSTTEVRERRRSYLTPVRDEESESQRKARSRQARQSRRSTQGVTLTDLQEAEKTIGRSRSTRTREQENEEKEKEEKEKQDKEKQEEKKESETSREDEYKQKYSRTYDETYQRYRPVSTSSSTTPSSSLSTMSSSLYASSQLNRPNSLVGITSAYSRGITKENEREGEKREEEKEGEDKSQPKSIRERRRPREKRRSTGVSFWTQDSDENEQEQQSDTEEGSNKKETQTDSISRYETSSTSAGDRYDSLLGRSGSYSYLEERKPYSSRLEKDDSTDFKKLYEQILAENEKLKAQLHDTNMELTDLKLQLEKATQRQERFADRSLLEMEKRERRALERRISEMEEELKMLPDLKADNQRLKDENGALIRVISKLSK

The target in assay [1] is T1, His-SPECC1LΔCHD (UniProt Q69YQ0).
T1 sequence: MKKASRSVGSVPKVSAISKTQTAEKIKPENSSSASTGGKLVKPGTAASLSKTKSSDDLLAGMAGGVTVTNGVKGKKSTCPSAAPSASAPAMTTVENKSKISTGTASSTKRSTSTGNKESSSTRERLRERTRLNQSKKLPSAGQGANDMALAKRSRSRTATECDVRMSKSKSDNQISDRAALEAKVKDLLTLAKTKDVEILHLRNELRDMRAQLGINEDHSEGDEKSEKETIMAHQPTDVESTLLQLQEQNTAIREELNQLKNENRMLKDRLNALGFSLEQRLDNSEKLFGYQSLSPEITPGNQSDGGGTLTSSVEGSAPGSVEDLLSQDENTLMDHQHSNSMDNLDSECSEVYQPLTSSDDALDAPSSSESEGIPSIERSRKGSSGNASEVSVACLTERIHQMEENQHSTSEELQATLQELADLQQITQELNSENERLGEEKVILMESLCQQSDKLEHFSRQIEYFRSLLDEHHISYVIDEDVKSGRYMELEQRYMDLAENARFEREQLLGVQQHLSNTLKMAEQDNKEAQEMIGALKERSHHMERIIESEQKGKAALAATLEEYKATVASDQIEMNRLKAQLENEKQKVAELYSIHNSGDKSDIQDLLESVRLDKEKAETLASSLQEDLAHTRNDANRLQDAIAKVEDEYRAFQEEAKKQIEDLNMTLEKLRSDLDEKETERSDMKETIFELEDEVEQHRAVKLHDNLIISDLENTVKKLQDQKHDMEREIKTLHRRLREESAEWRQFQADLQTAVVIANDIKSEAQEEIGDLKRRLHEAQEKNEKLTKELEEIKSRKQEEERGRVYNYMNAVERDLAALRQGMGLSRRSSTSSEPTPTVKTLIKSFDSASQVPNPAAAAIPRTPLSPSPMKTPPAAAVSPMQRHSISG
Briefly: far-Western, overlay or dot blot.

Assay [2] concerns the target GST-MYPT1(CD) (human) (UniProt O14974). The experiment in a line: pull-down.
Assay [3] addresses GFP-MYPT1(CD) (human) (UniProt O14974). The experiment in a line: co-IP.

These are yes or no findings as the source states them, for the method shown. For part of these data: In cells and extracts the contact can be indirect. Some results given as binding are weak or reduced against the parent protein; the word gives no strength. Tags and fused reporters may be left off the sequences shown.

For the molecule “GST-MYPT1(CD) (from UniProt O14974 654-1030) (domain or fragment)”, the binding entry in assay [1] is “binds”.

B1: His-SPECC1LΔCHD (domain or fragment, UniProt Q69YQ0 1-890)
chain: T1 sequence
B1: in assay [2], the binding entry is “binds”.

B2: mCherry-tagged SPECC1L-CT (domain or fragment, UniProt Q69YQ0 462-1117)
chain: QIEYFRSLLDEHHISYVIDEDVKSGRYMELEQRYMDLAENARFEREQLLGVQQHLSNTLKMAEQDNKEAQEMIGALKERSHHMERIIESEQKGKAALAATLEEYKATVASDQIEMNRLKAQLENEKQKVAELYSIHNSGDKSDIQDLLESVRLDKEKAETLASSLQEDLAHTRNDANRLQDAIAKVEDEYRAFQEEAKKQIEDLNMTLEKLRSDLDEKETERSDMKETIFELEDEVEQHRAVKLHDNLIISDLENTVKKLQDQKHDMEREIKTLHRRLREESAEWRQFQADLQTAVVIANDIKSEAQEEIGDLKRRLHEAQEKNEKLTKELEEIKSRKQEEERGRVYNYMNAVERDLAALRQGMGLSRRSSTSSEPTPTVKTLIKSFDSASQVPNPAAAAIPRTPLSPSPMKTPPAAAVSPMQRHSISGPISTSKPLTALSDKRPNYGEIPVQEHLLRTSSASRPASLPRVPAMESAKTLSVSRRSSEEVKRDISAQEGASPASLMAMGTTSPQLSLSSSPTASVTPTTRSRIREERKDPLSALAREYGGSKRNALLKWCQKKTEGYQNIDITNFSSSWNDGLAFCALLHTYLPAHIPYQELNSQDKRRNFMLAFQAAESVGIKSTLDINEMVRTERPDWQNVMLYVTAIYKYFET
Regarding B2, the binding result in assay [3] was “binds”.
